Measurements as given in article PMC10959363.

Experiments:
[1] = molecular target: T1, SERPINE1 mRNA binding protein 1, HA-tagged (SERBP1-HA) (UniProt Q6AXS5); assay: co-IP; KMM cells lentivirally transduced with SERBP1-HA and the partner (SIRT1-7, SIRT3-Myc or vIL-6-Flag; also SIRT3-Myc with or without vIL-6-Flag); lysate immunoprecipitated with anti-HA antibody on magnetic beads at 4°C overnight, washed with TBST, Western blotting
T1 sequence: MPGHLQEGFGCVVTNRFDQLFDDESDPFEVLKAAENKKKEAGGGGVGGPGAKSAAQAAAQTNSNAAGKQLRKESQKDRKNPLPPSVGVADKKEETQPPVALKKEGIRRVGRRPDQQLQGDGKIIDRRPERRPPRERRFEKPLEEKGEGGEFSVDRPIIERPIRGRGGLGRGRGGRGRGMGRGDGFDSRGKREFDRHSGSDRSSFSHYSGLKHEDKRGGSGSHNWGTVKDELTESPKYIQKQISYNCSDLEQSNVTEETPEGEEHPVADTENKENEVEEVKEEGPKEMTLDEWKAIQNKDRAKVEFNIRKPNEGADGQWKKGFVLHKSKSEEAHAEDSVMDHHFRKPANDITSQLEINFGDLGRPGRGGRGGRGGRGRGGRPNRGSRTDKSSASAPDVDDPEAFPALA

[2] = molecular target: T2, SERPINE1 mRNA binding protein 1 (SERBP1), endogenous (rat (endogenous in MM and KMM cells)) (UniProt Q6AXS5); assay: co-IP; endogenous proteins in MM and KMM cell lysates; immunoprecipitated with anti-SERBP1 antibody, immunoblotted with anti-SIRT3, 6 and 7 antibodies
T2 sequence: T1 sequence

Row | Substance | binding [1] | binding [2]
1 | SIRT6 (lentiviral, SIRTs-Myc) (enzyme) | binds | 
2 | SIRT7 (lentiviral, SIRTs-Myc) (enzyme) | binds | 
3 | Sirtuin 3 (SIRT3), endogenous (rat (endogenous in MM and KMM cells)) (enzyme) |  | binds
4 | Sirtuin 3, Myc-tagged (SIRT3-Myc) (enzyme) | binds | 

These are yes or no findings as the source states them, for the method shown. Binding seen in cells or lysates may run through a third protein. Binding calls can cover weak binding; strength is not graded here. For some of these results: Sequences can lack the tags named with a protein.
